This is an account of results in patent US20060149521A1 (University of California, published 2006).

Results are given in words; binding and its absence hold for the method and conditions named. Some entries that bind do so weakly or less than the wild type. Tags and fused reporters may be left off the sequences shown.

In one experiment the target is T1, hTRβ ligand binding domain (hTRβ LBD), in vitro translated, as used in the GST-GRIP1 binding and peptide competition assays (human) (UniProt P10828).
T1 sequence ([35S]-methionine labelled (in vitro translated), looked up): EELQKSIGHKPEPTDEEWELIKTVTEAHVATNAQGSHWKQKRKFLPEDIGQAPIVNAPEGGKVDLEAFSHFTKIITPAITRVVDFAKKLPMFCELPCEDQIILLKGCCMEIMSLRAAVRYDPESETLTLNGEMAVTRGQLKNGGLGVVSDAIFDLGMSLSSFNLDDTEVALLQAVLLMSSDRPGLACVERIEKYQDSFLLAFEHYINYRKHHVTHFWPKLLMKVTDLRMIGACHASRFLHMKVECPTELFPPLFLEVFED
Description: peptide competition of hTRβ LBD binding to GST-GRIP1 (563-767).
As to PKKKENALLRYLLDKDDTKD, the binding result is “binds”.

Take EKHKILHRLLQDS (also called original NR-box 2 peptide) [GRIP1 NR-box 2 peptide EKHKILHRLLQDS]: the binding result is on record as “binds”.

As for TSLKEKHKILHRLLQDS [extended NR-box 2 peptide …], the binding result is given as “binds”.

Take TSLKEKHKLLRYLLQDSS [chimeric peptide containing the NR-box 3 motif in the context of the NR-box 2 flanking sequences, …]: the binding entry was “binds”.

KENALLRYLLDKDDTKD: the binding result was “binds”.

For a further experiment, the target named is T1, hTRβ ligand binding domain (hTRβ LBD), in vitro translated, as used in the GST-GRIP1 binding and peptide competition assays (human). Description: peptide competition of TR binding to GST-GRIP1 (563-767) or its NR-box 3 mutant.
Take ENALLRYLLDKDD [GRIP1 NR-box 3 peptide ENALLRYLLDKDD]: the binding result is listed as “binds”.

Take EKHKILHRLLQDS (also called original NR-box 2 peptide) [GRIP1 NR-box 2 peptide EKHKILHRLLQDS]: the binding result is recorded as “binds”.
